Patent WO2005063245A1, “Composition for lowering blood pressure” (priority 2003, dated 2005)
The name of at least one read-out is uncertain.

Assay: Test example 6: test of blood pressure lowering effect using SHR rats, samples (16)-(30) (Table 9)
Type: in vivo, rat
Conditions: oral, mean ± SE, dose mg/kg: 17: 500, 18: 1.5, 19: 3.0, 20, 21, 24, 26, 27, 28, 30: 50, 22, 23: 20, 25, 29: 100

CC(C)C[C@H](N)C(=O)O [Sample 21, Leucine]
systolic blood pressure (n=5, 2 h after administration): 154 ± 4.4 mmH
systolic blood pressure (n=5, 4 h after administration): 149 + 3.9 mmH

CC[C@H](C)[C@H](N)C(=O)O [Sample 20, Isoleucine]
systolic blood pressure (n=5, 2 h after administration): 158 + 2.8 mmH
systolic blood pressure (n=5, 4 h after administration): 152 ± 4.4 mmH
